{
  "source": "the supplement of paper PMC7824004",
  "note": "This is one part of the list. The data scatter; read single values as rough.",
  "data": [
    {"system": "Candida albicans SN425", "test": "biofilm OD600 B-score; higher = more biofilm (less inhibition)", "settings": "10 µM; assay detail: High-throughput adherence inhibition optical density biofilm assay with C. albicans SN425 in RPMI-1640/MOPS pH 7.0, 384-well plates. …", "description": "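High-throughput adherence inhibition optical density biofilm assay with C. albicans SN425 in RPMI-1640/MOPS pH 7.0, 384-well plates. Compound (10 µM) was present only during the 90 min adherence step, then washed out, and the biofilm grew 24 h without compound. Biofilm was read as OD600 after removing the media. Scores are the difference from the mean in standard deviations and the plate B-score.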", "values": [
      {"compound": "O=C(CNC(=O)c1ccccc1F)NC1CC1", "biofilm OD600 B-score": -1.72},
      {"compound": "COc1ccc(NC(=O)Nc2ccc(Cl)cn2)cc1", "biofilm OD600 B-score": -0.0637},
      {"compound": "COc1ccccc1CC(=O)Nc1ccccc1NC(C)=O", "biofilm OD600 B-score": 0.493},
      {"compound": "CC(=O)N(C)c1ccc(NC(=O)CCCc2ccccc2)cc1", "biofilm OD600 B-score": 0.23},
      {"compound": "COc1ccc(C(=O)N2CCN(CC(=O)N3CCOCC3)CC2)cc1", "biofilm OD600 B-score": -3.63},
      {"compound": "CSc1ccccc1C(=O)Nc1cccnc1", "biofilm OD600 B-score": -0.254},
      {"compound": "N#Cc1c2n(c3c(=O)[nH]cnc13)CCCC2", "biofilm OD600 B-score": 1.65},
      {"compound": "Cc1ccc(S(=O)(=O)Nc2nc(C)c(C)s2)cc1", "biofilm OD600 B-score": 0.392},
      {"compound": "O=C(CN1CCOCC1)NC12CC3CC(CC(C3)C1)C2", "biofilm OD600 B-score": 0.0437},
      {"compound": "Cc1cc(Br)ccc1OCCN1CCN(C)CC1", "biofilm OD600 B-score": -0.562},
      {"compound": "Cc1cccc(NC(=O)c2ccc(Br)o2)n1", "biofilm OD600 B-score": -1.72},
      {"compound": "N#CC1=C(SCC(=O)Nc2ccccc2)NC(=O)CC1c1ccco1", "note": "(stereo unspecified)", "biofilm OD600 B-score": 0.00328},
      {"compound": "CCC(C)(C)C(=O)Nc1nnc(C)s1", "biofilm OD600 B-score": 2.34},
      {"compound": "COc1ccccc1/C=C/CN1CCN(c2ccccn2)CC1", "biofilm OD600 B-score": 0.16},
      {"compound": "O=C(Cc1ccccc1)Nc1cccc(N2C(=O)CCC2=O)c1", "biofilm OD600 B-score": -3.46},
      {"compound": "CCOc1ccc(CN(C)CCN(C)C)cc1", "biofilm OD600 B-score": -3.7}
    ]}
  ]
}
